Data: patent US9945863B2, “Coiled coil helix cristae morphology 1 (CHCM1) tumor marker and cancer therapeutic target” (The Research Foundation of State University of New York, priority 2012, dated 2018)
For at least one compound, name, drawing or mass did not settle the structure.

System: CHCM1/CHCHD6 protein levels
Assay: Western blot of CHCM1/CHCHD6 protein levels after drug treatment
Type: cell-based, human
Conditions: A375 melanoma cells; 96 hrs (FIG. 21)
Procedure: Western blotting and immunoprecipitations were done by standard procedures as previously described (25, 26). S-tag pull down experiments were performed using human cancer cells as well as bacterial lysates. Cell pellets were prepared and lysed in lysis buffer (50 mM Tris-HCl, pH 7.4, 120 mM NaCl, 0.1% NP-40, 10 mM NaF, 5 mM EDTA, 2 mM Na3VO4, 2 mM MgCl2, 10 mM KCl, 25 mM glycerophosphate, protease inhibitor cocktail, okadic acid and 1 mM PMSF) and S-tag pull down was performed by using S-protein agarose beads (Novagen, EMD Chemicals Group, Darmstadt, Germany) according to manufacturer's protocol. For S-tag pull down using bacterial lysates, wild type and deletion variants of S-tagged CHCM1/CHCHD6 were expressed in E. coli BL21 (DE3) and induced by 1 mM IPTG (isopropyl-1-thio-β-D-galactopyranoside) at 30° C. for 6 hr. Bacteria were lysed in a buffer containing 28 mM Tris, 135 mM NaCl, 1 mM dithiothreitol (DTT), 1% Triton-X 100 (w/v), protease inhibitor cocktail and 400 μg/ml […] for 30 min at room temperature, followed by 26,000×g centrifugation for 30 min (Sorvall RC5C Plus) and S-tag pull down was done according to manufacturer's protocol. GST-tagged Mitofilin was expressed in bacteria and gel-purified as previously described (27).

CN(C)/N=N/c1[nH]cnc1C(N)=O [DTIC, Dacarbazine]
CHCM1 protein level: down-regulates
